PubChem BioAssay AID602196 | INSERM | 2012

- Screen: 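Modifiers of cisplatin sensitivity in A549 cells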
- System: human A549 lung cancer cells
- Reagent: siRNA pair against human genes
- Timing: 48 h transfection before cisplatin; time from cisplatin to read-out not stated
- Conditions: cisplatin at a dose killing half of control-siRNA cells; exact dose and duration not given
- Measured: 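Shift in cisplatin death relative to control siRNA, from -50 (all cells die) to +50 (no cells die); siRNAs harmful on their own scored 0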
- Scale: two-siRNA summed score (-2 to +2): higher = both siRNAs protect from cisplatin killing; -2 means both sensitise
- Active means: 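Each siRNA scores 0 if harmful alone by LDH or WST-1, otherwise +1 if it reduces and -1 if it increases cisplatin killing; a gene is active when both siRNAs agree (sum +2 or -2)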
- Meaning of the calls: active = both siRNAs shift cisplatin killing the same way; inactive = no consistent shift, or siRNA harmful alone
Shown is a random part of about 23,000 reagents. In the full data, 455 (2%) were called active. 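Active includes both protection and sensitisation; some change values fall well beyond the stated -50 to +50 range.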 The numbers tell different reagents against one gene apart. Not all columns of the deposit are shown. Reagent sequences are not shown. The record does not give: the amount of reagent.

PRRX1 — two-siRNA summed score (-2 to +2) = 0; call = inactive
LAX1 — two-siRNA summed score (-2 to +2) = 1; call = inactive
IGFL4 #1 — two-siRNA summed score (-2 to +2) = 0; call = inactive
IGFL4 #2 — two-siRNA summed score (-2 to +2) = 1; call = inactive
MMP20 — two-siRNA summed score (-2 to +2) = -1; call = inactive
OR1N2 — two-siRNA summed score (-2 to +2) = 0; call = inactive
LOC388890 — two-siRNA summed score (-2 to +2) = 1; call = inactive
LOC401261 — two-siRNA summed score (-2 to +2) = 0; call = inactive
LOC400730 — two-siRNA summed score (-2 to +2) = 1; call = inactive
LOC284293 — two-siRNA summed score (-2 to +2) = 0; call = inactive
STAT3 — two-siRNA summed score (-2 to +2) = -1; call = inactive
EHMT2 — two-siRNA summed score (-2 to +2) = 0; call = inactive
LOC440261 — two-siRNA summed score (-2 to +2) = 0; call = inactive
LOC388530 — two-siRNA summed score (-2 to +2) = 0; call = inactive
FOXO1 — two-siRNA summed score (-2 to +2) = 0; call = inactive

Next part; the last 3 above are carried over.
LOC440261 — two-siRNA summed score (-2 to +2) = 0; call = inactive
LOC388530 — two-siRNA summed score (-2 to +2) = 0; call = inactive
FOXO1 — two-siRNA summed score (-2 to +2) = 0; call = inactive
LOC345378 — two-siRNA summed score (-2 to +2) = 0; call = inactive
PRKCE — two-siRNA summed score (-2 to +2) = 0; call = inactive
SMG8 — two-siRNA summed score (-2 to +2) = 1; call = inactive
PRPF6 — two-siRNA summed score (-2 to +2) = 0; call = inactive
CYP2D6 — two-siRNA summed score (-2 to +2) = 0; call = inactive
KCTD18 — two-siRNA summed score (-2 to +2) = 0; call = inactive
ZNF624 — two-siRNA summed score (-2 to +2) = 0; call = inactive
MCOLN1 — two-siRNA summed score (-2 to +2) = -1; call = inactive
GMFG — two-siRNA summed score (-2 to +2) = -1; call = inactive
POLR1D #1 — two-siRNA summed score (-2 to +2) = 0; call = inactive
POLR1D #2 — two-siRNA summed score (-2 to +2) = 1; call = inactive
TPPP — two-siRNA summed score (-2 to +2) = 1; call = inactive
SLC5A10 — two-siRNA summed score (-2 to +2) = 0; call = inactive
PPP3CC — two-siRNA summed score (-2 to +2) = 1; call = inactive
ARPC5L — two-siRNA summed score (-2 to +2) = 0; call = inactive
LINC01591 — two-siRNA summed score (-2 to +2) = 0; call = inactive
RPAP3 — two-siRNA summed score (-2 to +2) = 0; call = inactive
ZBTB5 — two-siRNA summed score (-2 to +2) = 0; call = inactive
FLJ39207 — two-siRNA summed score (-2 to +2) = 0; call = inactive
LOC441038 — two-siRNA summed score (-2 to +2) = 0; call = inactive
LOC155060 — two-siRNA summed score (-2 to +2) = 0; call = inactive
ARTN — two-siRNA summed score (-2 to +2) = 0; call = inactive
LOC439986 — two-siRNA summed score (-2 to +2) = 0; call = inactive
LOC377064 — two-siRNA summed score (-2 to +2) = 1; call = inactive
SERTAD3 — two-siRNA summed score (-2 to +2) = 0; call = inactive
